This is an account of results in paper PMC3511282.

Series [1] concerns the target Sf-PHB2 (prohibitin 2) (Spodoptera frugiperda (Sf9 cells)) (UniProt H6T598). As to the kind of experiment: EMSA supershift. Particulars: anti-Sf-PHB2 antibody 0.5 or 1 ug, poly(dI/dC); 50 mM Tris pH 7.4, 2.5 mM EDTA, 0.25 mg/ml poly(dI/dC), 250 mM NaCl, 2.5 mM DTT, 5 mM MgCl2, 20% glycerol; 20 fmol probe, 10 ug Sf9 nuclear extract, 20 min; protein in an extract; residues 1-299; label: 3' biotin.

For series [2] the target is unchanged. As to the kind of experiment: competition EMSA. Particulars: 5- and 10-fold excess unlabeled probe prevented complex, 50 mM Tris pH 7.4, 2.5 mM EDTA, 0.25 mg/ml poly(dI/dC), 250 mM NaCl, 2.5 mM DTT, 5 mM MgCl2, 20% glycerol, 20 fmol probe, 10 ug Sf9 nuclear extract, 20 min, protein in an extract, residues 1-299.

For at least one entry, the source does not settle the construct or the ends of the probe. At least one result comes from cells or an extract, where the contact may be indirect.

Take “CTCATTTATTCCTAGAAATGGTGTAATC (double strand) [12-bp element probe (WSSV ie1 promoter)]”: in series [1], the binding result is “binds”. With “CTCATTTATTCCTAGAAATGGTGTAATC (double strand) [12-bp element unlabeled competitor]”, the binding result in series [2] is “binds”.
